Protein sequences, listed by entry. Tags and fused reporters are not part of them. Lines headed by an entry give the natural chain unless they say otherwise; changes in a name come on top.
UniProt Q8TRB6: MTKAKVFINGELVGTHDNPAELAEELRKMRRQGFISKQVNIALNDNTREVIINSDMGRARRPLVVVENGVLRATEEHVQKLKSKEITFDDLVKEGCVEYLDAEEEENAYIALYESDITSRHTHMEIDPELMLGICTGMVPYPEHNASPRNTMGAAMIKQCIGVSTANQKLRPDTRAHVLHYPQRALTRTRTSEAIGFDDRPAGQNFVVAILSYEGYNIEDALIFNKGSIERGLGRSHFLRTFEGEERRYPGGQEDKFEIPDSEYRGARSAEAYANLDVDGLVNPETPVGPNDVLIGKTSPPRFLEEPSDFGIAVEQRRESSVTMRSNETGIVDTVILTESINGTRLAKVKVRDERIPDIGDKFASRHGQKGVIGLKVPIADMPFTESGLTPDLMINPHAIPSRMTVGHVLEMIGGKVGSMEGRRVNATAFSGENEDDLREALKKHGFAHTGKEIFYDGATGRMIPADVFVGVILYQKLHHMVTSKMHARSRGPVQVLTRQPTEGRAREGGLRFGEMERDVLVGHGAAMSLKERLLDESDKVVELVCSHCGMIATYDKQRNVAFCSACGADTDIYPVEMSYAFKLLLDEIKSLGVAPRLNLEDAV
UniProt Q8TSS4: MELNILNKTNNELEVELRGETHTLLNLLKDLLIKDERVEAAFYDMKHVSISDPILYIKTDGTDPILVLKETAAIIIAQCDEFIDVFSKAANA

According to PMC5300874:

B1: Rpo3mFeS1 (recombinant, E. coli) (protein, UniProt P0CG28 1-266)
chain: MTMEVDILELSDRSAKFVLSNVSTAFANGIRRAMVADVPTLAIEYVNLYDNTSVLYDEQLALRLSLIPLATDIETYLPQAECDVCGGEGCPACEVSLTLSAEGPGTVYSRDLISSDPKIQPADPNVPIVELKKGQKLVLEAIAHMGYGRDSVKWQAGVACGYKNMPVITIENCDACGHCAAECPKGIISVEEAGAKIAEEDIMKSSISRLCEQVCDINAIKVDFYENSFVFTMESDGSYTAKDLVLNAANVIKGKAEEMLAILDQL
B2: Rpo3mFeS2 (recombinant, E. coli) (protein, UniProt P0CG28 1-266)
chain: MTMEVDILELSDRSAKFVLSNVSTAFANGIRRAMVADVPTLAIEYVNLYDNTSVLYDEQLALRLSLIPLATDIETYLPQAECDVCGGEGCPACEVSLTLSAEGPGTVYSRDLISSDPKIQPADPNVPIVELKKGQKLVLEAIAHMGYGRDSVKWQAGVACGYKNMPVITIENSDASGHSAAECPKGIISVEEAGAKIAEEDIMKCSICRLCEQVCDINAIKVDFYENSFVFTMESDGSYTAKDLVLNAANVIKGKAEEMLAILDQL

How the values were obtained:
[1] = molecular target: (His)Rpo3ΔD3 (Methanosarcina acetivorans) (UniProt P0CG28); assay: pull-down; gene replacement M. acetivorans strains (native rpo3 replaced); (His)Rpo3 variant held on Ni2+-agarose from lysate, anaerobic; eluates normalised to Rpo3; western blot for Rpo11, Rpo2′, Rpo1″
[2] = molecular target: (His)Rpo3ΔFeS1 (Methanosarcina acetivorans) (UniProt P0CG28); assay: as above
[3] = molecular target: (His)Rpo3ΔD3 (Methanosarcina acetivorans) (UniProt P0CG28); assay: pull-down; merodiploid M. acetivorans strains (native Rpo3 also present), tetracycline-induced; (His)Rpo3 variant held on Ni2+-agarose from lysate, anaerobic; eluates normalised to 15 ng (His)Rpo3; western blot for Rpo11, Rpo2′, Rpo1″
[4] = molecular target: (His)Rpo3ΔFeS1 (Methanosarcina acetivorans) (UniProt P0CG28); assay: condition: only in the merodiploid strain, in competition with native Rpo3; pull-down; merodiploid M. acetivorans strains (native Rpo3 also present), tetracycline-induced; (His)Rpo3 variant held on Ni2+-agarose from lysate, anaerobic; eluates normalised to 15 ng (His)Rpo3; western blot for Rpo11, Rpo2′, Rpo1″
[5] = molecular target: T1, (His)Rpo3, N-terminally histidine-tagged wild-type Rpo3 expressed in Methanosarcina acetivorans (Methanosarcina acetivorans) (UniProt P0CG28); assay: pull-down; gene replacement M. acetivorans strains (native rpo3 replaced); (His)Rpo3 variant held on Ni2+-agarose from lysate, anaerobic; eluates normalised to Rpo3; western blot for Rpo11, Rpo2′, Rpo1″
T1 sequence: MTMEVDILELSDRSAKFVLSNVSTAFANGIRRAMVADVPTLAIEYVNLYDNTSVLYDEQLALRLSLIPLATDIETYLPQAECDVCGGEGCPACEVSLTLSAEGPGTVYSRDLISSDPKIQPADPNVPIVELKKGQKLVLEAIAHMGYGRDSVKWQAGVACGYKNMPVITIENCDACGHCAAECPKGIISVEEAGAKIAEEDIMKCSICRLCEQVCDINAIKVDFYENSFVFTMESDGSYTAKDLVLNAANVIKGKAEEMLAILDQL

[6] = molecular target: T2, (His)Rpo3mFeS2 (Methanosarcina acetivorans) (UniProt P0CG28); assay: as above
T2 sequence: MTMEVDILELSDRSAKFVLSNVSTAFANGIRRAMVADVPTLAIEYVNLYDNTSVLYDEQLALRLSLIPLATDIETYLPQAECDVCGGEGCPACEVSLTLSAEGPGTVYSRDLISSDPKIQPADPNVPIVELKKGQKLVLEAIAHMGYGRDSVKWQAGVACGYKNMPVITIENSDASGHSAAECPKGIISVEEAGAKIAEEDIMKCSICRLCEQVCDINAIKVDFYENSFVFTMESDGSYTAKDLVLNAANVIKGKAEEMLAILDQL

[7] = molecular target: T1, (His)Rpo3, N-terminally histidine-tagged wild-type Rpo3 expressed in Methanosarcina acetivorans (Methanosarcina acetivorans); assay: pull-down; merodiploid M. acetivorans strains (native Rpo3 also present), tetracycline-induced; (His)Rpo3 variant held on Ni2+-agarose from lysate, anaerobic; eluates normalised to 15 ng (His)Rpo3; western blot for Rpo11, Rpo2′, Rpo1″
[8] = molecular target: T3, (His)Rpo3mFeS1 (Methanosarcina acetivorans) (UniProt P0CG28); assay: as above
T3 sequence: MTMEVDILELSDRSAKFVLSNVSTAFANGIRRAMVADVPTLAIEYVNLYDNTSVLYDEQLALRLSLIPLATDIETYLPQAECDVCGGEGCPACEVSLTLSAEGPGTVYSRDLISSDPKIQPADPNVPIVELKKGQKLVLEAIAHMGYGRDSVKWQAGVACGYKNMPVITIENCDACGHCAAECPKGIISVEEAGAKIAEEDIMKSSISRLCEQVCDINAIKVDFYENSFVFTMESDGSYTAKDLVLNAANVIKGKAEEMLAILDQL

[9] = molecular target: T2, (His)Rpo3mFeS2 (Methanosarcina acetivorans); assay: as above
[10] = molecular target: (His)Rpo3ΔFeS1 (Methanosarcina acetivorans) (UniProt P0CG28); assay: as above
[11] = molecular target: (His)Rpo3ΔFeS2 (Methanosarcina acetivorans) (UniProt P0CG28); assay: as above
[12] = molecular target: Rpo11(His), histidine-tagged Rpo11 of Methanosarcina acetivorans RNA polymerase (Methanosarcina acetivorans); assay: pull-down + SEC; Rpo3 variant coexpressed with Rpo11(His) in E. coli; Rpo11(His) purified anaerobically by Ni2+ affinity and size-exclusion chromatography

Row | Molecule | binding [1] | binding [2] | binding [3] | binding [12] | further results
1 | Rpo2′ (RpoB′), catalytic subunit of Methanosarcina acetivorans RNA polymerase (from UniProt Q8TRB6 1-604) | binds | binds | binds weakly |  | binding [4]: no binding
2 | native Rpo11 of Methanosarcina acetivorans RNA polymerase (from UniProt Q8TSS4) | binds | binds | binds |  | binding [5]: binds; binding [6]: binds; binding [7]: binds; binding [8]: binds; binding [9]: binds; binding [10]: binds; binding [11]: binds
3 | B1 |  |  |  | binds | 
4 | B2 |  |  |  | binds | 

These are yes or no findings as the source states them, for the method shown. In cells and extracts the contact can be indirect. For some of these results: A result given as binding can be weak or reduced; the word gives no strength. For some of these results: Tags and fused reporters may be left off the sequences shown.
